Values after ≈ are worked out from the molar mass of the structure shown. The match of structure and compound is tentative.
System: B. subtilis
Assay: Inhibition of bacterial growth on agar plates (MIC)
Format: cell-based
Settings: 37° C., 24 hours
Procedure: Each compound is assayed against a panel of Bacillus, Enterococcus and Staphylococcus, and a Gram-negative bacterium Escherichia coli as negative control, grown in appropriate plate media solidified with 1.3% agar-agar. Stock solutions of the compounds in dimethylsulfoxide or water, depending on solubility, are added to sterile medium at a temperature of 60° C. This stock mixture is diluted with drug-free medium and used to make a series of Petri plates containing inhibitor in a series of two-fold serial dilutions, from about 80 to 0.625 μg/mL. One tenth mL of diluted bacteria containing 500-1000 colony-forming units (CFU) are plated and spread, and the plates incubated at 37° C. for 24 hours. MIC (minimum inhibitory concentration) is equivalent to the lowest concentration at which growth, i.e. colony formation, is not observed.

## CCc1cc(Nc2cc(=O)n(CCCCN3C[C@@H](C)O[C@@H](C)C3)c(=O)[nH]2)ccc1C (relative stereo)
  MIC B. subtilis: 2.5 µg/mL (≈ 6.03 µM)
